The source of these data is the supplement of paper PMC4604168 (melanoma cell lines).

Some test systems named below: 501Mel; A101D; A2058; A375; C32; CBRC013; CBRC014; CBRC016; CBRC017.
Holding throughout (test): cleaved PARP positive nuclei fraction relative to DMSO control; melanoma cells; higher = more apoptosis
Settings in all cases: library dose: low library concentration; 72 h

The list shows a part of the results. Repeats are few or missing, and single values can be far off.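 Imaging used 1,536-well plates; nuclei positive for cleaved PARP by antibody were divided by total DNA-stained nuclei to yield the apoptosis fraction. Doses for screening kept most cells viable, and cell lines differ markedly in resting and induced cleaved-PARP levels.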

Take `C/C(O)=C(\C#N)C(=O)Nc1cc(Br)ccc1Br` + Cc1cc([N+](=O)[O-])ccc1NS(=O)(=O)c1cc(Cl)ccc1Cl [FH535] (first compound 2 µM, partner dose 1 µM): the “cleaved PARP positive nuclei fraction” value in the experiment on 501Mel was found to be 90.1%; in the experiment on A101D, 67%; in the experiment with A2058, 65.6%; in the experiment on A375 it was 47.8%; in the experiment with C32, 177%; with CBRC013, 101%. The “cleaved PARP positive nuclei fraction” value in the experiment with CBRC014 was determined as 168%; with CBRC016 it was 3230%; in the experiment on CBRC017 (line from a melanoma biopsy), 259%.

In the case of `O=S(=O)(c1ccccc1)N(CC(F)(F)F)c1ccc(C(O)(C(F)(F)F)C(F)(F)F)cc1` + O=C(Oc1ccc([N+](=O)[O-])cc1)N1CCC(C(O)(c2ccc3c(c2)OCO3)c2ccc3c(c2)OCO3)CC1 [JZL184] (first compound 1.4 µM, partner dose 1 µM), the “cleaved PARP positive nuclei fraction” value with 501Mel came out at 264%; with A101D, 58.1%; in the experiment on A2058, 81.9%; in the experiment on A375, 103%; in the experiment with C32, 93.7%; in the experiment on CBRC013 (line from a melanoma biopsy), 68%. Also, the results for the “cleaved PARP positive nuclei fraction” value in the experiment with CBRC014, in the experiment with CBRC016 and with CBRC017 were 117%, 85.4% and 81.8%, respectively.

Regarding `Cc1cc(SCc2sc(-c3ccc(C(F)(F)F)c(F)c3)nc2C)ccc1OCC(=O)O` + Cn1cc(/C=C2\C(=O)Nc3cccnc32)c2ccccc21 [GW441756] (first compound 2 µM, partner dose 0.4 µM), the “cleaved PARP positive nuclei fraction” value stood at 72.2% in the experiment with 501Mel; 56.2% in the experiment on A101D; 25.6% with A2058; 212% with A375; 74.3% in the experiment with C32; 44.4% in the experiment on CBRC013. Further, the “cleaved PARP positive nuclei fraction” value with CBRC014 is 80.8%; in the experiment on CBRC016 (line from a melanoma biopsy), 129%; in the experiment with CBRC017, 235%.

`NC(=O)Nc1cc(-c2cccc(F)c2)sc1C(=O)N[C@H]1CCCNC1` + O=C(Oc1ccc([N+](=O)[O-])cc1)N1CCC(C(O)(c2ccc3c(c2)OCO3)c2ccc3c(c2)OCO3)CC1 [JZL184] (first compound 0.02 µM, partner dose 1 µM): the “cleaved PARP positive nuclei fraction” value in the experiment with 501Mel was determined as 105%; with A101D it was 268%; in the experiment on A2058 it was 49.1%; in the experiment with A375 it was 278%; in the experiment on C32, 78.9%; in the experiment on CBRC013, 37.4%. For the same compound, the entries for the “cleaved PARP positive nuclei fraction” value in the experiment on CBRC014 (line from a melanoma biopsy), in the experiment on CBRC016 and in the experiment with CBRC017 were 85.1%, 50.3% and 154%, respectively.

For the compound `CCc1ccc(CCOc2ccc(CC3SC(=O)NC3=O)cc2)nc1` (stereo not given) [pioglitazone] + O=C(Oc1ccc([N+](=O)[O-])cc1)N1CCC(C(O)(c2ccc3c(c2)OCO3)c2ccc3c(c2)OCO3)CC1 [JZL184] (first compound 2 µM, partner dose 1 µM), the “cleaved PARP positive nuclei fraction” value in the experiment on 501Mel came to 73.2%; with A101D, 191%; in the experiment with A2058, 106%; in the experiment on A375 it was 35.9%; in the experiment on C32 it was 68.3%; with CBRC013, 42.7%. Further, the “cleaved PARP positive nuclei fraction” value is 109% in the experiment with CBRC014, 72.7% with CBRC016 and 106% with CBRC017.
